Measurements: article PMC4981497
These are yes or no findings as the source states them, for the method shown. Binding seen in cells or lysates may run through a third protein. A yes stands for co-enrichment or nearness to the bait. Other partners may have been found.

By UniProt entry, the sequences of proteins in these tests, tags left out. Where a name states a change or a piece, a line headed by the entry shows the natural chain unless it says otherwise. Residues count along the entry.
UniProt P05205: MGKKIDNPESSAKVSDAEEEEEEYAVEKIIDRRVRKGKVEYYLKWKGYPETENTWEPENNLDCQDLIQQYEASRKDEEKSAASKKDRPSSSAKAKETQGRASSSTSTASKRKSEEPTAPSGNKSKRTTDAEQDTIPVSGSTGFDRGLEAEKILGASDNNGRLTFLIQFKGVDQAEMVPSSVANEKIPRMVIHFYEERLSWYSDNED
UniProt Q27268: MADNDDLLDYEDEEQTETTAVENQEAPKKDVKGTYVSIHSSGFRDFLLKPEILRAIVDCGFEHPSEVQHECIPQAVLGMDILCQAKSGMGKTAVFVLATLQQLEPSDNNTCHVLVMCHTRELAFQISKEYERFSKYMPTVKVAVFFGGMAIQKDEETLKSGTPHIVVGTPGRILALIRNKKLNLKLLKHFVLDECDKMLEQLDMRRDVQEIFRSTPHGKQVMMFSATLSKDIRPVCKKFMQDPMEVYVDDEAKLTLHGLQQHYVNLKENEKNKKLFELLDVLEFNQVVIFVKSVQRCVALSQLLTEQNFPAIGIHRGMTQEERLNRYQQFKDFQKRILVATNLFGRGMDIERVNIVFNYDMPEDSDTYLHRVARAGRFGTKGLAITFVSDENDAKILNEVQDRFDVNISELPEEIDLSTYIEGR
UniProt P08985: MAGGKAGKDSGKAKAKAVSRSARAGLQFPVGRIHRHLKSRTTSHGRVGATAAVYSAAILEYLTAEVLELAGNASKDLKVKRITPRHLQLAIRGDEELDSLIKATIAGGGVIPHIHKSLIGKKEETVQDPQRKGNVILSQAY
UniProt P29844, residues 19-656: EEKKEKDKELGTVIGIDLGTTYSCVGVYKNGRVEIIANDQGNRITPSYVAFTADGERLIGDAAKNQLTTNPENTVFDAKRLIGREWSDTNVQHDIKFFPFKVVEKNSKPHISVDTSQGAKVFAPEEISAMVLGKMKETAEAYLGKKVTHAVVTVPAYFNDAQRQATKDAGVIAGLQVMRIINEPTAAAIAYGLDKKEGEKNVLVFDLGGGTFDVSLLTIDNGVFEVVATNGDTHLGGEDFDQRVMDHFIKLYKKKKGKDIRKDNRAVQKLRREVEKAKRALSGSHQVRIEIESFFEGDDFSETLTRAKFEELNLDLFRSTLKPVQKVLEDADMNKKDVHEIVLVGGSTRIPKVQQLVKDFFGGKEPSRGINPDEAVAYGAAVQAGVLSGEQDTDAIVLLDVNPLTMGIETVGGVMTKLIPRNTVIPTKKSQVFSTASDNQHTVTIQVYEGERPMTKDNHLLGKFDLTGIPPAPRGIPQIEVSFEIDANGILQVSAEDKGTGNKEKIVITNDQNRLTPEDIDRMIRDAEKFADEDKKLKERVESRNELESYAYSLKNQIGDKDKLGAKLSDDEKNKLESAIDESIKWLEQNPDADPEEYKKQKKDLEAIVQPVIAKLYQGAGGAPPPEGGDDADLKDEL
UniProt P11147: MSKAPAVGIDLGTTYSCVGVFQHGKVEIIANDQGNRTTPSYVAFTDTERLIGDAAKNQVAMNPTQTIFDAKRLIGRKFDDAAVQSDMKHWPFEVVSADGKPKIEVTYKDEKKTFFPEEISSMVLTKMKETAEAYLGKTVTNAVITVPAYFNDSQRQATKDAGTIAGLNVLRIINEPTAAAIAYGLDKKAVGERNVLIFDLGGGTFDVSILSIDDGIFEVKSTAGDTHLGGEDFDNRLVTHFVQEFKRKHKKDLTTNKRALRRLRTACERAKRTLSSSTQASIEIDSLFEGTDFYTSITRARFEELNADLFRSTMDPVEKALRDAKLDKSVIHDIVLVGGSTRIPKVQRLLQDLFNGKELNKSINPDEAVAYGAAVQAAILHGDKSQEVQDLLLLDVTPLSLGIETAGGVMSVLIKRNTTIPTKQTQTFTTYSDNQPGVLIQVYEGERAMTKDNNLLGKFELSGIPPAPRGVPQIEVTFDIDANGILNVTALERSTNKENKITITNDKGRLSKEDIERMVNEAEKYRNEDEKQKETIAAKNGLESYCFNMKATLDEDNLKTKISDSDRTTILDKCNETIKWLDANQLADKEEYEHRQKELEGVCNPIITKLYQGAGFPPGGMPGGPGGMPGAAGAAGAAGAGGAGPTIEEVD
UniProt P29845: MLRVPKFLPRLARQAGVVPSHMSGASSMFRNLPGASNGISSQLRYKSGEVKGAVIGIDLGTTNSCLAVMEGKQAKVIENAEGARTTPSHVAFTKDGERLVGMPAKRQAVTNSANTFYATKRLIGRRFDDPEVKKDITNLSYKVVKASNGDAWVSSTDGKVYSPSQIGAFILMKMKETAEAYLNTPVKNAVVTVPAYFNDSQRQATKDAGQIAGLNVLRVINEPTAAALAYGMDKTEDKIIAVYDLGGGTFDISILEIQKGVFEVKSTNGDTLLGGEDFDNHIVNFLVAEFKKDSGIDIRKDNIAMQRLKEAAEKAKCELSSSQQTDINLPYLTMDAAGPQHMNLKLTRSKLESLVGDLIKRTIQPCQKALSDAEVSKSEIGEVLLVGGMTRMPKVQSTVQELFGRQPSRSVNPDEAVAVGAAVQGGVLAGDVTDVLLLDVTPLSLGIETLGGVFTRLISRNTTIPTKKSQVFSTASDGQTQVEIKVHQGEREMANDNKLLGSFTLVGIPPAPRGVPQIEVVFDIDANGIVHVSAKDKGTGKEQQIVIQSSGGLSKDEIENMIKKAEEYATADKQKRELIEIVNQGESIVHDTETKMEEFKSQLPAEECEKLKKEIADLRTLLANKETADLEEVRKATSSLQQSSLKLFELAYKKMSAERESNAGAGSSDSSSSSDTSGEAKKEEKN
UniProt O02649, residues 58-573: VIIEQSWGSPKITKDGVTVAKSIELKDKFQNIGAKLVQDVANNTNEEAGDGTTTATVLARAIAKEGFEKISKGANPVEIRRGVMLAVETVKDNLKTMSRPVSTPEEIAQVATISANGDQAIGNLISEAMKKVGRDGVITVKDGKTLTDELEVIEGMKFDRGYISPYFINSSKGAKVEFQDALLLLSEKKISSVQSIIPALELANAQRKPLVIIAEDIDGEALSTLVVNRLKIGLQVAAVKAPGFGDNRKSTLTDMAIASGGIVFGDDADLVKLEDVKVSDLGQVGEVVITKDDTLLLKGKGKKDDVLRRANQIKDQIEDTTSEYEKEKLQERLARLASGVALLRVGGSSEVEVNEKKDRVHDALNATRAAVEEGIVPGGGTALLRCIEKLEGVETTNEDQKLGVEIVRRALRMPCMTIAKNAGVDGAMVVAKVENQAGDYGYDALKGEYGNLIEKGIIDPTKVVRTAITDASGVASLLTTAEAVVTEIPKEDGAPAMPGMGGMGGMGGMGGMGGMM
UniProt P02828: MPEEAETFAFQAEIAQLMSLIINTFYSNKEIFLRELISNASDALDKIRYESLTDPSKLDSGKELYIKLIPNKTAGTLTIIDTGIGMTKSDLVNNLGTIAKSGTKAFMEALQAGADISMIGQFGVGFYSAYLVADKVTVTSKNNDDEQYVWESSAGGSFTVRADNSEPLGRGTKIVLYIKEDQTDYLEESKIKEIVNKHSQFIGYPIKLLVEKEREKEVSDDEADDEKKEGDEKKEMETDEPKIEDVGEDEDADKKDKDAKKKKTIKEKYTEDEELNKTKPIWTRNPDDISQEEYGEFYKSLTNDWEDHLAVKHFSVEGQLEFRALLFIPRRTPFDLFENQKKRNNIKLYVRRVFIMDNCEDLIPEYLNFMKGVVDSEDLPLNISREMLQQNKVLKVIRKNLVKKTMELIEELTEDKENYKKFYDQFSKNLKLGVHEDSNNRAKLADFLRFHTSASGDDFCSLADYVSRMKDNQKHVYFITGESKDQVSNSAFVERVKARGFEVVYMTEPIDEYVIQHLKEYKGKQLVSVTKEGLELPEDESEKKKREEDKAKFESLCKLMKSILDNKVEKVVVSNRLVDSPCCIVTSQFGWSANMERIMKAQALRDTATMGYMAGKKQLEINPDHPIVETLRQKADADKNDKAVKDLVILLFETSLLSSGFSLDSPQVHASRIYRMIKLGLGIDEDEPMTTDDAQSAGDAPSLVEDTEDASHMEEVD
UniProt P12982: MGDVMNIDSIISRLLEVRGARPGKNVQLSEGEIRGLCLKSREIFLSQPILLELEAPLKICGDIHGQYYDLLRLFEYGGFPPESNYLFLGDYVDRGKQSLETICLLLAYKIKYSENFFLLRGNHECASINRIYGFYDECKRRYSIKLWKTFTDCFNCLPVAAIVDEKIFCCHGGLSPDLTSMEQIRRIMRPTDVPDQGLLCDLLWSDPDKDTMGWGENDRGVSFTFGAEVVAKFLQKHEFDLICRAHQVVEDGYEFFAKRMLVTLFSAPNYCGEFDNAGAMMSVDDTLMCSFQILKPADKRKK
UniProt Q9V3G1: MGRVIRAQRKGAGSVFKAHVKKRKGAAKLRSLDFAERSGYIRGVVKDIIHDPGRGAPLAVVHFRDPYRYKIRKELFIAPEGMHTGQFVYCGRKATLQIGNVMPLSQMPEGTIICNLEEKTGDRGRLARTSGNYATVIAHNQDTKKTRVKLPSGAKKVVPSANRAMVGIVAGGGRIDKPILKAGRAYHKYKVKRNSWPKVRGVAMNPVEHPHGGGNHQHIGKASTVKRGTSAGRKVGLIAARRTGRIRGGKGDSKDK
UniProt P45975: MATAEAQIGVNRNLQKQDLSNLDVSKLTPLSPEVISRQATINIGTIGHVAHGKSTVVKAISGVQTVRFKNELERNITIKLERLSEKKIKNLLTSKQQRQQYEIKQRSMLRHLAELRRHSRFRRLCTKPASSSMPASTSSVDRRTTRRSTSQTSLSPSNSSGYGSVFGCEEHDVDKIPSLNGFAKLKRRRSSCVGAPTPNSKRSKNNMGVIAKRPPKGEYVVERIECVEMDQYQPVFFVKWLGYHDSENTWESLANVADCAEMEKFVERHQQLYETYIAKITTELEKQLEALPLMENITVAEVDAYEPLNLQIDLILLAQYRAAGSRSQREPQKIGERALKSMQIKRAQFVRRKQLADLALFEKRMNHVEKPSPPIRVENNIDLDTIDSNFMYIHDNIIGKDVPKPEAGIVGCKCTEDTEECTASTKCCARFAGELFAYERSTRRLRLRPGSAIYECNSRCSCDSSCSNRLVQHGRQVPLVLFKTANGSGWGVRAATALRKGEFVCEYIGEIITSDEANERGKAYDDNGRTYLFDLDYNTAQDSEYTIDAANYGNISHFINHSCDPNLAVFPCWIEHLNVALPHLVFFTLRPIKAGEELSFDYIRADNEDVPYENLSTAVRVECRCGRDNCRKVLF
UniProt Q24560: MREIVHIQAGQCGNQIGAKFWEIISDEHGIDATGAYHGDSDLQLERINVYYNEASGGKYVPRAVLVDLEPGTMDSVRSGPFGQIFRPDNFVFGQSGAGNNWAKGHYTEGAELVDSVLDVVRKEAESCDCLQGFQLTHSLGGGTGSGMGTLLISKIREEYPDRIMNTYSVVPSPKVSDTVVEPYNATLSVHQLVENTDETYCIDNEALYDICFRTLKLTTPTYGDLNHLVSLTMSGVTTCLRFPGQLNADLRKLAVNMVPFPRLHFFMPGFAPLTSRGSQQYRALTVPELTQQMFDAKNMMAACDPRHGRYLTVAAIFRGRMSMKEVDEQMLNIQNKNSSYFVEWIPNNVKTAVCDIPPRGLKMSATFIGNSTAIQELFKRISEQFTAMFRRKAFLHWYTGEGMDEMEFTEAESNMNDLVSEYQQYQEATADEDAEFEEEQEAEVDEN
UniProt Q02748: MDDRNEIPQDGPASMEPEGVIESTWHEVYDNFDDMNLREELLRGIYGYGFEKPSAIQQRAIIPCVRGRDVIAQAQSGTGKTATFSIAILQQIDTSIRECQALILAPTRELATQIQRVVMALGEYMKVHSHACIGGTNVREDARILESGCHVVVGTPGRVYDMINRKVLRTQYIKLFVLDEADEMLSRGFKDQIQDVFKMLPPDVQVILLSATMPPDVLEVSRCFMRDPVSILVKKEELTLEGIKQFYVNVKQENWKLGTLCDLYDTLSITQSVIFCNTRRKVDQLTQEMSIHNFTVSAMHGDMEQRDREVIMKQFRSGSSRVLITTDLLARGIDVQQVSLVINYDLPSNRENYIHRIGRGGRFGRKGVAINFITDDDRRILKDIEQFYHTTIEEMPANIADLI
UniProt P38979: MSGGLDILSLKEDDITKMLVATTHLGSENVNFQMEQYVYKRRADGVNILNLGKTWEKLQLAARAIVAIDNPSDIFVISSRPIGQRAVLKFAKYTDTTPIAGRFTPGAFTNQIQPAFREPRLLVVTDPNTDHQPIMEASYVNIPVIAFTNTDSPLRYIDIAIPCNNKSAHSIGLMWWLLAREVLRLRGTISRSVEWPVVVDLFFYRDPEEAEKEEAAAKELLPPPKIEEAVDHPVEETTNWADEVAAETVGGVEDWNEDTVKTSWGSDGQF

Biological target: Heterochromatin Protein 1a tagged with 3X-FLAG and StrepII (3X-FLAG-Myc-StrepII-PP-HP1a) (D. melanogaster) (UniProt P05205)
Assay: affinity purification with mass spectrometry; six purifications of FS-HP1a from S2 cell extracts (single-step on anti-3XFLAG M2 beads, or tandem on anti-3XFLAG M2 then Strep-Tactin beads); benzonase-treated extracts, HP1a extracted with 300 mM NaOAc, 4°C; cells mock-exposed or 10 or 60 min after 10 Gy of X-rays; LC-MS/MS; S2 cells lacking FS-HP1a as negative control

In the case of CG7172 (from UniProt Q9VP13), the binding is reported as “binds”.

For CG8108 (from UniProt Q9VT61), the binding was “binds”.

CG8258 (from UniProt A1Z7K1) was tested, and the binding was “binds”.

With EF2 (from UniProt P13060 1-844) the binding was “binds”.

In the case of Hel25E (from UniProt Q27268 1-424), the binding is reported as “binds”.

With His2Av (from UniProt P08985 1-141) the binding was “binds”.

In the case of Hsc70-3 (from UniProt P29844 19-656), the binding is reported as “binds”.

In the case of Hsc70-4 (from UniProt P11147 1-651), the binding is reported as “binds”.

With Hsc70-5 (from UniProt P29845 1-686) the binding was “binds”.

Hsp60 (from UniProt O02649 58-573) was tested, and the binding was “binds”.

Hsp83 (from UniProt P02828 1-717) was tested, and the binding was “binds”.

For Oddjob (CG7357) (from UniProt Q9VEF0), the binding was “binds”.

For Pp1-87B (from UniProt P12982 1-302), the binding was “binds”.

In the case of RpL8 (from UniProt Q9V3G1 1-256), the binding is reported as “binds”.

In the case of “Suppressor of variegation 3-9 (from UniProt P45975 1-635)”, the binding is reported as “binds”.

With betaTub56D (from UniProt Q24560 1-447) the binding was “binds”.

With eIF-4a (from UniProt Q02748 1-403) the binding was “binds”.

For sta (from UniProt P38979 1-270), the binding was “binds”.

B1: FK506-binding protein 1 (protein, UniProt P54397 1-357)
chain: MSMFWGLNMKPERKYSQTIIKSFHISGVALDKGQEAKLYLAAEKQEYIVATVTKAIPQVALDLNFSKGDRIMFYTAGDASVSLLGYLHDIDSEDDEDDDQMTIENLLNSKAIKNSKKSEDDEDENESGEEDEEDTDDDSQIIEEYESFLENGEEEDDDDVDEDNEESGEEDEQDSDDSEAEEEQPKAKVAKLSPGASAKKSGKEQNGVAKKEEAKQQQKKKEKPEAKKEQPKAKEPAKQQPASKDPRTITGGVKIVDQVVGKGEEAKQGKRVSVYYIGRLQSNNKTFDSLLKGKPFKFALGGGEVIKGWDVGVAGMKVGGKRVITCPPHMAYGARGAPPKIGPNSTLVFEVELKAVH
B1 was tested, and the binding was “binds”.

B2: RpLP0 (protein, UniProt P19889 1-317)
chain: MVRENKAAWKAQYFIKVVELFDEFPKCFIVGADNVGSKQMQNIRTSLRGLAVVLMGKNTMMRKAIRGHLENNPQLEKLLPHIKGNVGFVFTKGDLAEVRDKLLESKVRAPARPGAIAPLHVIIPAQNTGLGPEKTSFFQALSIPTKISKGTIEIINDVPILKPGDKVGASEATLLNMLNISPFSYGLIVNQVYDSGSIFSPEILDIKPEDLRAKFQQGVANLAAVCLSVGYPTIASAPHSIANGFKNLLAIAATTEVEFKEATTIKEYIKDPSKFAAAASASAAPAAGGATEKKEEAKKPESESEEEDDDMGFGLFD
In the case of B2, the binding is reported as “binds”.

B3: female lethal d (protein, UniProt Q9Y091 1-536)
chain: MSVAAMTMDDQRPCMNSYDKMPPTKYEQNLNILNSSQNSGATGGPASPTPSGLEDHHHHHHPHPHHHHHQEQQQQQQQQQHLQQQQQQQQQQHAAAVAEAVAAAEQRQRLLEDEIENLKLEQVRMAQQCADAQRREKILMRRLANKEQEFQDYVSQIAEYKAQQAPTALALRTALLDPAVNLLFERLKKELKATKAKLEETQNELSAWKFTPDSNTGKRLMAKCRLLYQENEELGKMTSNGRLAKLETELAMQKSFSEEVKKSQSELDDFLQELDEDVEGMQSTILFLQQELKTTRDRIQTLEKENAQLKQAIKDEVVAPAAATNGGTNTTINKLETIHEDACMANNPTNPDCYNGNTNNEQIAAVPQIPLSDDGSNMNGNAARLARKRNYQEEEALPTVVVVPTPTPVGNNVQEAPPIREVTAPRTLPPKKSKLRGITTRRNSQLEEDHQPVTTPVAVPMIVDNAVAGMASEEAAAAAAAVNNSNTGIIPETGVQVGVPVEGGDPGAPAAPGRILTRRRSVRMQQNGSGAVDYST
With B3 the binding was “binds”.

B4: La autoantigen-like (protein, UniProt P40796 1-390)
chain: MAEVAETPSVEAQEEVAQPAEAQVLEAKNGDAKKDPAPAAEEAAGGFTKQERAIIRQVEYYFGDANLNRDKFLREQIGKNEDGWVPLSVLVTFKRLASLSTDLSEIVAALNKSEEGLVEISEDKLSLRRHPERPIPEHNEERRKEIQERTAYAKGFPLDSQISELLDFAANYDKVVNLTMRKHYDKPTKSYKFKGSIFLTFETKDQAKAFLEQEKIVYKERELLRKWQVDYLKEKQEEYAQKNEKRKNKKEAKPEPAFELPKNAIVVFEGAPETSSREEIREAFEKIKDFEVAYIEFAKGETKGSVRLTEADAAEKYIAKVEEGKLKFKDEVSLSLRKATEEEEKEFIDKAIEFMKKRRDFTRNKGKRFNRKRHGGNDHKHGGGKKARGD
With B4 the binding was “binds”.

B5: tsr (protein, UniProt P45594 1-148)
chain: MASGVTVSDVCKTTYEEIKKDKKHRYVIFYIRDEKQIDVETVADRNAEYDQFLEDIQKCGPGECRYGLFDFEYMHQCQGTSESSKKQKLFLMSWCPDTAKVKKKMLYSSSFDALKKSLVGVQKYIQATDLSEASREAVEEKLRATDRQ
With B5 the binding was “binds”.

B6: Lysine (K)-specific demethylase 4A (protein, UniProt Q9V333 1-495)
chain: MSTRSSFADEEQNKVPRIMTFRPSYEEFQNFSAYIEYIESRGAHLAGLAKIQPPAEWVPRKSGYDIDNINMTIPAPICQVVTGAHGVYQQINIQQRRQMTLRQFMEKANSELHQTPRHFDYDDLERKYWKNITYISPLYAADVKGSLSDEDLDVWNIGRLDTILNLVNTDYNIIIDGVNTAYLYFGMWKSSFAWHTEDMDLYSINYLHFGAPKTWYAIPPAYGRRLEKLANETFSENYQECNAYLRHKMTMISPKVLRQHNIPYNKITQEAGEIMITFPFGYHAGFNHGFNGAESTNFASKRWIEYGKRASICRCRSDMVKISMETFVRRFQPERYDNWLKGQDMGCHPEEPGKICAAAPPTLNEYEKQENLRAAKSEEESPQKRGCSLAGNGCERNAESAEDVDDKASVSSYSSCRQLQPVVKLRKLPTIASVPEPSSAPKRYDFNTEAVVRVKRLWNELPCPDRGANLLTNGVVKNTKRMRFQTKVLTLDDED
For B6, the binding was “binds”.
